In the supplement of paper PMC12578635:
The list shows a part of the results. No stated cut-off is given here; in the data, active = 150% or more and inactive = the rest. Most values come without repeats; read them as rough.

tested on: Staphylococcus aureus JE2-lux inside RAW 264.7 macrophages; assay: intracellular bacterial bioluminescence relative to DMSO vehicle; higher = higher intracellular bacterial metabolic activity; settings: 10 µM; treatment time 4 h; gentamicin 50 µg/ml

Question: How did the intracellular bacterial bioluminescence turn out when O=C(COc1ccccc1)c1ccc(O)c(O)c1O was run?
Answer: inactive: 104%

Question: With CC(NC(=O)c1ncoc1-c1ccc(F)cc1)C(=O)N1CCCCC1 (stereo not drawn) as the compound, how does the intracellular bacterial bioluminescence read?
Answer: inactive: 96.6%

Question: Which intracellular bacterial bioluminescence does the source give for COC(=O)C1=C(C)N(Cc2ccccc2)C(=O)NC1c1ccccc1F (stereo not drawn) here?
Answer: inactive: 97.4%

Question: With Cc1ccc2nc(NC(=O)CSc3nc(=O)n(N4CCN(C)CC4)c4c3CCCC4)sc2c1 as the compound, how does the intracellular bacterial bioluminescence read?
Answer: inactive: 128%

Question: Which intracellular bacterial bioluminescence does the source give for COc1ccc(NC(=O)CNCCO)c(OC)c1 here?
Answer: inactive: 105%

Question: With Cc1cc2c(o1)CCc1sc(N(C)C(=O)c3cc(C(C)(C)C)nn3C)nc1-2 as the compound, how does the intracellular bacterial bioluminescence read?
Answer: inactive: 115%

Question: For CCS(=O)(=O)c1ccc(C(=O)/N=c2/sc3c(C)cc(C)cc3n2C)cc1, which intracellular bacterial bioluminescence is on record?
Answer: inactive: 93.4%

Question: For CCc1ccc(OCC(=O)Nc2noc(-c3ccc(C)cc3)n2)cc1, which intracellular bacterial bioluminescence is on record?
Answer: inactive: 90.9%

Question: Which intracellular bacterial bioluminescence does the source give for COc1ccc(C(=O)NCCNc2nc3c(C)cccc3cc2C#N)cc1 here?
Answer: inactive: 101%

Question: With COCCNC(=O)CSc1nc(-c2ccccc2)nc2ccc(Cl)cc12 as the compound, how does the intracellular bacterial bioluminescence read?
Answer: inactive: 100%

Question: With Cc1ccc(-c2cc(C(F)(F)F)n3nc(C(=O)Nc4ccc5c(c4)OCO5)nc3n2)cc1 as the compound, how does the intracellular bacterial bioluminescence read?
Answer: inactive: 77%

Question: With Cc1ccc(NC(=O)c2cc3c(CO)cnc(C)c3o/c2=N\c2cccc3ccccc23)cc1C as the compound, how does the intracellular bacterial bioluminescence read?
Answer: inactive: 120%

Question: For COc1cc(C2=NN3C(C2)c2ccccc2OC3c2cccs2)ccc1O (stereo not drawn), which intracellular bacterial bioluminescence is on record?
Answer: inactive: 105%

Question: CC1(C)Oc2ccc(NC(=O)COc3ccc(CN4CCCC4)cc3)cc2O1 was tested. Which intracellular bacterial bioluminescence did it give?
Answer: inactive: 91.8%

Question: How did the intracellular bacterial bioluminescence turn out when Cc1cc2c(=O)n(CC(=O)N3CCC(O)(c4ccccc4C)CC3)cnc2s1 was run?
Answer: inactive: 111%

Question: How did the intracellular bacterial bioluminescence turn out when COc1cccc(C(=O)Nc2cccc(-c3nc4ncccc4o3)c2)c1 was run?
Answer: inactive: 70.7%

Question: For Cc1nc(Nc2ccc(NC(=O)Nc3cccc(C(F)(F)F)c3)cc2)cc(N2CCOCC2)n1, which intracellular bacterial bioluminescence is on record?
Answer: inactive: 78.1%

Question: For CC(C)(C)c1nc(SCC(=O)Nc2ccc3c(c2)OCO3)c2ccccc2n1, which intracellular bacterial bioluminescence is on record?
Answer: inactive: 88%

Question: With Cc1ccc(F)cc1Nc1ncnc(N)c1[N+](=O)[O-] as the compound, how does the intracellular bacterial bioluminescence read?
Answer: inactive: 89.2%

Question: Cc1ccc(C(=O)Nc2ccc3c(c2)C(=O)NC3=O)cc1C was tested. Which intracellular bacterial bioluminescence did it give?
Answer: inactive: 100%

Question: How did the intracellular bacterial bioluminescence turn out when CC(C)c1ccc2nc3sc(C(=O)Nc4nccs4)c(N)c3cc2c1 was run?
Answer: inactive: 79.2%

Question: For Cc1cccc(C(c2sc3nc(C)nn3c2O)N2CCCC2)c1 (stereo not drawn), which intracellular bacterial bioluminescence is on record?
Answer: inactive: 98.6%

Question: For CC1CCc2c(sc3ncnc(NCCN4CCOCC4)c23)C1 (stereo not drawn), which intracellular bacterial bioluminescence is on record?
Answer: inactive: 97.4%

Question: Which intracellular bacterial bioluminescence does the source give for CCN(C(=O)C1CCCCC1)c1nc2c(s1)CCc1oc(C)cc1-2 here?
Answer: inactive: 89.3%

Question: For COc1ccc(NC(=O)CSc2nc3ccccc3o2)cc1, which intracellular bacterial bioluminescence is on record?
Answer: inactive: 103%

Question: For Cc1ccc(C2=NS(=O)(=O)N(C)C(C(=O)Nc3cc(C)n(CC(=O)Nc4cccnc4)n3)=C2)cc1, which intracellular bacterial bioluminescence is on record?
Answer: inactive: 101%

Question: Cc1c(C(=O)Oc2cc(N)n(S(C)(=O)=O)n2)cccc1[N+](=O)[O-] was tested. Which intracellular bacterial bioluminescence did it give?
Answer: inactive: 95.5%

Question: Which intracellular bacterial bioluminescence does the source give for CCC(=O)Nc1ccc(N2C(=O)CS/C2=N\NC(=O)c2ccc(O)cc2)cc1 here?
Answer: active: 156%

Question: With Cc1ccc(-n2c(=O)c3oc4ccccc4c3n(CC(=O)Nc3ccccc3F)c2=O)cc1 as the compound, how does the intracellular bacterial bioluminescence read?
Answer: inactive: 94.8%

Question: Which intracellular bacterial bioluminescence does the source give for CC(=O)Nc1cccc(NC(=O)CSc2nnc(NC(=O)Cc3ccc(F)cc3)s2)c1 here?
Answer: inactive: 75.9%

Question: How did the intracellular bacterial bioluminescence turn out when O=C(CS(=O)(=O)c1ccccc1)Nc1cccc2c1C(=O)c1ccccc1C2=O was run?
Answer: inactive: 69.4%

Question: How did the intracellular bacterial bioluminescence turn out when Brc1ccc2nc(NCc3ccccn3)nc(-c3ccccc3)c2c1 was run?
Answer: inactive: 13.5%

Question: With O=C(CSc1ncnc2[nH]ncc12)Nc1nc(-c2ccco2)c(-c2ccco2)s1 as the compound, how does the intracellular bacterial bioluminescence read?
Answer: inactive: 111%

Question: How did the intracellular bacterial bioluminescence turn out when O=C(NNc1nc2ccc(Cl)cc2s1)c1nc2ccccc2s1 was run?
Answer: inactive: 113%

Question: Which intracellular bacterial bioluminescence does the source give for Cc1cccc(N2CCN(C(=O)c3cc(CN4CCOCC4)on3)CC2C)c1 (stereo not drawn) here?
Answer: inactive: 114%

Question: Which intracellular bacterial bioluminescence does the source give for CC(=O)c1ccc(-n2nnnc2SCC(=O)c2ccc3c(c2)OCCO3)cc1 here?
Answer: inactive: 83.4%

Question: CC(C)N1C(=O)c2ccccc2Sc2cc(NC(=O)c3cncc(Br)c3)ccc21 was tested. Which intracellular bacterial bioluminescence did it give?
Answer: inactive: 8.85%

Question: For COc1ccc(NC(=O)Cn2c(=O)c3cc(Cl)ccc3n3nncc23)cc1, which intracellular bacterial bioluminescence is on record?
Answer: inactive: 65.1%

Question: How did the intracellular bacterial bioluminescence turn out when CCCCc1c(C)nn(-c2nc(C)c(C(=O)Nc3cccc(C)c3C)s2)c1O was run?
Answer: inactive: 114%

Question: CC(C)(C)NC(=O)c1cccc2c1-c1ccccc1C2=O was tested. Which intracellular bacterial bioluminescence did it give?
Answer: inactive: 95.5%

Question: For CCc1cccc(NC(=O)c2nn(C)c(C(F)(F)F)c2Cl)c1, which intracellular bacterial bioluminescence is on record?
Answer: inactive: 116%

Question: With O=C(CSc1ncnc2nc[nH]c12)N1CCN(Cc2ccc3c(c2)OCO3)CC1 as the compound, how does the intracellular bacterial bioluminescence read?
Answer: inactive: 97.6%

Question: CCOc1ccccc1/C=N/NC(=O)c1n[nH]c2c1CCC2 was tested. Which intracellular bacterial bioluminescence did it give?
Answer: active: 158%

Question: For O=C(Nc1ccc(SCc2nnc(-c3ccccc3)o2)cc1)C1CC1, which intracellular bacterial bioluminescence is on record?
Answer: inactive: 60.4%

Question: Which intracellular bacterial bioluminescence does the source give for Cc1c(-c2ccccc2)n[nH]c1C(=O)NC(c1ccccc1)c1ccnn1C (stereo not drawn) here?
Answer: inactive: 85.3%

Question: Which intracellular bacterial bioluminescence does the source give for Cc1nn(-c2nc3ccccc3[nH]2)c2c1C(c1ccc([N+](=O)[O-])s1)CC(=O)N2 (stereo not drawn) here?
Answer: inactive: 34.7%

Question: CCOC(=O)c1ccccc1NC(=O)CC1S/C(=N/C)N(C)C1=O (stereo not drawn) was tested. Which intracellular bacterial bioluminescence did it give?
Answer: inactive: 77.3%

Question: For CCc1ccc2[nH]c3nc(SCC(=O)Nc4nnc(C(C)C)s4)nnc3c2c1, which intracellular bacterial bioluminescence is on record?
Answer: inactive: 32.4%

Question: For COc1cccc(OC(=O)c2cc3c(-c4ccccc4F)nn(C)c3s2)c1, which intracellular bacterial bioluminescence is on record?
Answer: inactive: 60.6%

Question: CC(C)N1C(=O)/C(=C2/C(=O)N(CC(N)=O)c3ccccc32)SC1=S was tested. Which intracellular bacterial bioluminescence did it give?
Answer: inactive: 90.6%

Question: With CCOC(=O)Cc1ccc(NC(=O)N2CCc3c(c(C(=O)N4CCCCC4)nn3C)C2)cc1 as the compound, how does the intracellular bacterial bioluminescence read?
Answer: inactive: 121%

Question: For O=C(Cc1csc2nc(-c3ccc(F)cc3)cn12)NCc1ccc(F)cc1, which intracellular bacterial bioluminescence is on record?
Answer: inactive: 72.4%

Question: Which intracellular bacterial bioluminescence does the source give for O=C(C1CCN(c2nccnc2Oc2ccccc2)CC1)N1CCN(c2cccc(Cl)c2)CC1 here?
Answer: inactive: 47.7%

Question: For CCN(CC(O)Cn1c2ccccc2c2ccccc21)S(=O)(=O)c1ccc(F)cc1 (stereo not drawn), which intracellular bacterial bioluminescence is on record?
Answer: inactive: 105%

Question: Which intracellular bacterial bioluminescence does the source give for COc1ccc(OC)c(S(=O)(=O)NCCc2sc(-c3ccc(F)cc3)nc2C)c1 here?
Answer: inactive: 84.1%

Question: How did the intracellular bacterial bioluminescence turn out when Cc1cc(C(=O)NC2CCCOC2)c2cccc(Cl)c2n1 (stereo not drawn) was run?
Answer: inactive: 100%

Question: Cc1ccc(S(=O)(=O)Nc2ccccc2C(=O)Nc2c(C(N)=O)oc3ccccc23)cc1 was tested. Which intracellular bacterial bioluminescence did it give?
Answer: inactive: 95.5%

Question: Which intracellular bacterial bioluminescence does the source give for COc1ccc(Nc2ncnc3scc(-c4ccc(Cl)cc4)c23)c(OC)c1 here?
Answer: inactive: 106%
